# Test results from PubChem BioAssay AID2685 (National Center for Advancing Translational Sciences (NCATS), 2010).
# The other results are listed elsewhere or left out. The main result of the screen is listed elsewhere. These columns were measured beside it and carry no call. The list favours compounds with an active or inconclusive main result. Words in brackets tell the shape of the fitted curve; partial curves, single points and poor fits give uncertain potencies.
# Experiment: qHTS Assay for Lipid Storage Modulators in Drosophila S3 Cells;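 for cell number change: cells counted by Cell Tracker Red CMTPX staining in the red channel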
# Conditions: BODIPY lipid droplet fluorescence, 18-24 h; for cell number change: measured here: cell count max response, cells fed with added oleic acid
# Summary of the method: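 Drosophila S3 cells got compounds at several concentrations plus oleic acid (400 uM solution). Laser-scanning cytometry with 488 nm excitation read lipid droplets at 500-530 nm and cells at 575-640 nm. Percent activity was relative to 20 uM Triacsin C.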
# [1] = measured here: lipid fluorescence (Fed channel) AC50, cells fed with added oleic acid
# [2] = measured here: cell number channel AC50, cells fed with added oleic acid
structure (smiles),measurement,setting,value
CN1CCC(OC(=O)C23CCC(C)(C(=O)O2)C3(C)C)CC1 (centres undefined),cell number change,,1.19%
same,AC50,[1],"29.1 µM [falling, single point]"
CN1CCC2(CC1)N=C(c1ccc(F)cc1)C(=S)N2C(=O)c1ccc(C(C)(C)C)cc1,cell number change,,-65.1%
same,AC50,[2],"13 µM [falling, partial curve]"
same,AC50,[1],"11.6 µM [falling, partial curve]"
CC1(C)CC(=O)C(CC(=O)Nc2ccc(S(N)(=O)=O)cc2)=C(O)C1,cell number change,,-26.9%
CNC(=O)/C(C#N)=C/c1c(N(Cc2ccccc2)Cc2ccccc2)nc2ccccn2c1=O,cell number change,,-11.5%
same,AC50,[1],"29.1 µM [falling, single point]"
COCCn1c(SCc2cccc(F)c2)nc2cc(C(=O)OC)ccc2c1=O,cell number change,,8.15%
same,AC50,[1],"6.51 µM [falling, single point]"
CCN(CC)S(=O)(=O)c1ccc(O)c(NS(=O)(=O)c2ccccc2F)c1,cell number change,,10.9%
COc1cc(NC(=O)C2CC(c3c(F)cccc3Cl)=NO2)cc(OC)c1OC (centres undefined),AC50,[1],"14.6 µM [falling, partial curve]"
COc1ccccc1NS(=O)(=O)c1cccc(C(=O)OCc2nc3ccccc3s2)c1,cell number change,,5.91%
same,AC50,[1],"0.92 µM [rising, single point]"
CN(C)C(=O)c1cn(-c2ccccc2)nc1-c1cc2ccccc2o1,cell number change,,32.6%
same,AC50,[2],"29.1 µM [rising, single point]"
same,AC50,[1],"29.1 µM [rising, single point]"
COCCn1c(SCC(=O)Nc2ccc(S(N)(=O)=O)cc2)nc2ccccc21,cell number change,,40.7%
same,AC50,[1],"18.4 µM [rising, single point]"
COc1c(O)cc2c(c1O)C1OC(CO)C(O)C(O)C1OC2=O (centres undefined),cell number change,,-35%
same,AC50,[2],"23.1 µM [falling, single point]"
same,AC50,[1],"0.731 µM [falling, single point]"
O=C(Cc1ccc(Cl)cc1)Oc1cccc2cccnc12,cell number change,,28.4%
same,AC50,[1],"1.03 µM [rising, full curve]"
O=C(c1cc(-c2cccc(Cl)c2)nc2ccccc12)N1CCN(c2ccccn2)CC1,cell number change,,35.1%
same,AC50,[2],"20 µM [rising, single point]"
same,AC50,[1],"7.94 µM [rising, partial curve]"
CCOc1ccc(NC(=S)NC(C)c2cccs2)cc1 (centres undefined),AC50,[2],"0.092 µM [falling, partial curve, poor fit]"
CCC(C)(C)NC(=O)CN(Cc1ccc2c(c1)OCO2)C(=O)CCC(=O)Nc1cc(C)ccn1,cell number change,,-7.69%
CCOC(=O)N1CCN(c2ccc(Cl)cc2)CC1,cell number change,,13.8%
same,AC50,[1],"7.31 µM [rising, partial curve, poor fit]"
Cn1c(=O)[nH]c(=O)c2c1nc(Sc1nc3ccccc3s1)n2Cc1ccccc1,cell number change,,-10.1%
same,AC50,[1],"1.3 µM [rising, full curve]"
Cc1ccc(CNS(=O)(=O)c2cc(F)ccc2CN2C(=O)c3cccnc3C2=O)o1,cell number change,,-1.53%
same,AC50,[1],"0.58 µM [falling, single point]"
COc1ccc(NC(=O)CN(C)C(=O)c2cc(C)on2)cc1,cell number change,,-10.2%
same,AC50,[2],"0.13 µM [falling, full curve, poor fit]"
same,AC50,[1],"6.51 µM [falling, single point]"
COc1ccc(NC(=O)C2CCCN(S(=O)(=O)c3c(C)n[nH]c3C)C2)c(OC)c1 (centres undefined),cell number change,,-21.8%
same,AC50,[1],"0.291 µM [falling, full curve, poor fit]"
CC(C)C(=O)OC1CCS(=O)(=O)c2sccc21 (centres undefined),cell number change,,-6.69%
same,AC50,[1],"3.26 µM [rising, single point]"
Cc1cc(NC(=O)CCN2C(=O)C3C4CCC(C4)C3C2=O)c(C)cc1Br (centres undefined),cell number change,,-14.3%
same,AC50,[1],"18.4 µM [falling, single point]"
Cc1ccccc1-n1c(SCC(=O)c2cc(C)n(C)c2C)nnc1-c1cccnc1,cell number change,,90.6%
same,AC50,[2],"0.0731 µM [rising, full curve, poor fit]"
same,AC50,[1],"1.16 µM [rising, full curve]"
Cc1cccc(-n2c(C)c(C)c3c(N)ncnc32)c1,cell number change,,-2.25%
same,AC50,[2],"0.82 µM [rising, single point]"
same,AC50,[1],"29.1 µM [falling, single point]"
Cc1cccc(/C=C/c2nc3ccccc3c(=O)n2Cc2ccccc2)c1,cell number change,,-27.7%
same,AC50,[1],"29.1 µM [falling, single point]"
COc1cc(NC(=O)c2nn(C)c3c2CS(=O)(=O)c2ccccc2-3)cc(OC)c1,cell number change,,-17%
same,AC50,[1],"18.4 µM [falling, single point]"
O=C(O)CCCCCNC(=O)c1ccc(Br)cc1,cell number change,,-77.9%
same,AC50,[2],"13 µM [falling, partial curve]"
same,AC50,[1],"1.64 µM [falling, partial curve]"
CCc1ccc(S(=O)(=O)NCc2cccnc2)cc1,cell number change,,-18.5%
same,AC50,[1],"0.82 µM [rising, single point]"
O=S(=O)(Nc1cccc(-c2ccc3nncn3n2)c1)c1ccc(Cl)s1,cell number change,,33.5%
same,AC50,[2],"29.1 µM [rising, single point]"
COc1cc(OC)cc(-c2c(C#Cc3ccsc3)c3cc(-c4ccc(C(N)=O)cc4)ccc3n2C)c1,cell number change,,-18.5%
Cc1ccc(-c2nc(SC(C)C(=O)c3c(N)n(C)c(=O)n(C)c3=O)n[nH]2)cc1 (centres undefined),AC50,[2],"6.51 µM [rising, single point]"
CCOc1ccc(NC(=O)COC(=O)c2ncc(Cl)c(Cl)c2Cl)cc1,cell number change,,-17.2%
O=C(CCc1nc(-c2ccccc2F)no1)NCc1ccco1,cell number change,,12.4%
same,AC50,[2],"0.206 µM [falling, full curve, poor fit]"
same,AC50,[1],"0.231 µM [falling, full curve]"
Cc1ccc(C(=O)Nc2ccc3ncccc3c2)cc1,cell number change,,15.6%
same,AC50,[2],"3.66 µM [rising, partial curve]"
COc1ccc(NC(=O)COC(=O)C2CC(=O)N(Cc3ccc(C)cc3)C2)cc1 (centres undefined),AC50,[1],"3.26 µM [falling, partial curve]"
CC1CCCCC12NC(=O)N(CC(=O)OCc1ccccc1Cl)C2=O (centres undefined),AC50,[2],"6.51 µM [falling, single point]"
same,AC50,[1],"29.1 µM [rising, single point]"
CCc1c(C)nc2ncnn2c1Nc1ccccc1C,cell number change,,-5.49%
CCCc1sc(N/N=C/c2ccccn2)nc1-c1ccc(F)cc1,cell number change,,-76.6%
same,AC50,[2],"25.9 µM [falling, partial curve]"
same,AC50,[1],"25.9 µM [falling, partial curve]"
Cn1ncc(Br)c1C(=O)NC1CCCCC1,AC50,[1],"18.4 µM [rising, partial curve]"
Cc1cc(C)nc(SCc2ccc(C(=O)N/N=C/c3ccccc3C(=O)O)cc2)n1,AC50,[1],"6.51 µM [rising, single point]"
COc1nc(Nc2nc3ccccc3c(=O)[nH]2)nc2ccc(C)cc12,cell number change,,-36.5%
same,AC50,[2],"1.3 µM [falling, full curve]"
same,AC50,[1],"4.61 µM [falling, full curve, poor fit]"
O=[N+]([O-])c1ccc(Cl)c(/C=N/N2CCN(Cc3ccc(Cl)cc3)CC2)c1,AC50,[1],"1.64 µM [rising, partial curve]"
N=c1c(S(=O)(=O)c2ccccc2)cc2c(=O)n3ccccc3nc2n1CCCN1CCOCC1,cell number change,,31.6%
same,AC50,[2],"2.06 µM [rising, full curve, poor fit]"
O=C1CC(C(=O)Nc2ccc(Cl)cc2[N+](=O)[O-])C2(CCCCC2)O1 (centres undefined),cell number change,,4.5%
COc1ccccc1-n1cnnc1SCC(=O)Nc1cccnc1Cl,cell number change,,43%
same,AC50,[2],"5.8 µM [rising, full curve]"
same,AC50,[1],"5.17 µM [rising, partial curve]"
CCOc1cc(N2CCOCC2)c(OCC)cc1NC(=O)COC(=O)COc1cc(C)cc(C)c1,cell number change,,-44%
same,AC50,[2],"18.4 µM [falling, single point]"
same,AC50,[1],"20.6 µM [falling, single point]"
CCc1nnc(NCC(=O)N2CCc3ccccc32)s1,AC50,[2],"0.13 µM [falling, full curve, poor fit]"
N#CCCN(NC1=NS(=O)(=O)c2ccccc21)C(=O)c1ccccc1Br,cell number change,,19.6%
O=C([C@@H]1CCCN1C(=O)c1cccs1)N1CCN(S(=O)(=O)c2cccc(F)c2)CC1,cell number change,,2.19%
same,AC50,[1],"0.00461 µM [falling, full curve, poor fit]"
CCOC(=O)c1cnn(C(=O)c2ccccc2)c1N,cell number change,,6.49%
same,AC50,[1],"18.4 µM [rising, single point]"
Cc1[nH]c2ccccc2c1/C=N/NC(=O)c1cccc(S(=O)(=O)Nc2ccccc2Cl)c1,cell number change,,2.32%
same,AC50,[1],"0.92 µM [rising, full curve, poor fit]"
O=C1CC(N2CCC(O)CC2)C(=O)N1c1ccc(Br)cc1 (centres undefined),cell number change,,34.8%
same,AC50,[2],"6.51 µM [rising, full curve, poor fit]"
Cc1onc(-c2ccccc2Cl)c1C(=O)NC(=S)Nc1ccccc1F,cell number change,,22.8%
same,AC50,[1],"2.59 µM [rising, full curve]"
O=C(NCCN1CCN(c2ccccc2)CC1)Nc1ccc(Cl)cc1,cell number change,,-4.17%
CCn1c(CC(=O)Nc2ccccc2OC)nnc1SCC(=O)Nc1ccccc1F,cell number change,,5.42%
same,AC50,[1],"29.1 µM [rising, single point]"
C=CCc1c(C)nc(-c2ccccc2)nc1Nc1ccccc1O,cell number change,,-61.2%
same,AC50,[2],"29.1 µM [falling, partial curve, poor fit]"
same,AC50,[1],"4.61 µM [falling, partial curve]"
CCN(CC)CCCNC(=O)Cn1cnc2ccc(S(=O)(=O)N3CCC(C)CC3)cc2c1=O,cell number change,,-53.2%
same,AC50,[1],"1.16 µM [falling, partial curve]"
COC(=O)C1CN(S(=O)(=O)c2ccccc2)CCN1S(=O)(=O)c1ccccc1 (centres undefined),cell number change,,-24.1%
same,AC50,[2],"0.731 µM [falling, full curve]"
same,AC50,[1],"0.731 µM [falling, full curve]"

# Five records drawn at random from those above:
structure (smiles),measurement,setting,value
Cc1cccc(/C=C/c2nc3ccccc3c(=O)n2Cc2ccccc2)c1,AC50,[1],"29.1 µM [falling, single point]"
O=C([C@@H]1CCCN1C(=O)c1cccs1)N1CCN(S(=O)(=O)c2cccc(F)c2)CC1,AC50,[1],"0.00461 µM [falling, full curve, poor fit]"
COc1cc(OC)cc(-c2c(C#Cc3ccsc3)c3cc(-c4ccc(C(N)=O)cc4)ccc3n2C)c1,cell number change,,-18.5%
COc1ccc(NC(=O)C2CCCN(S(=O)(=O)c3c(C)n[nH]c3C)C2)c(OC)c1 (centres undefined),cell number change,,-21.8%
Cc1onc(-c2ccccc2Cl)c1C(=O)NC(=S)Nc1ccccc1F,cell number change,,22.8%
